# Measurements published in PubChem BioAssay AID1671190 (National Center for Advancing Translational Sciences (NCATS), 2021).
# Protein sequences, listed by entry. Tags and fused reporters are not part of them. Lines headed by an entry give the natural chain unless they say otherwise; changes in a name come on top.
# UniProt P18054: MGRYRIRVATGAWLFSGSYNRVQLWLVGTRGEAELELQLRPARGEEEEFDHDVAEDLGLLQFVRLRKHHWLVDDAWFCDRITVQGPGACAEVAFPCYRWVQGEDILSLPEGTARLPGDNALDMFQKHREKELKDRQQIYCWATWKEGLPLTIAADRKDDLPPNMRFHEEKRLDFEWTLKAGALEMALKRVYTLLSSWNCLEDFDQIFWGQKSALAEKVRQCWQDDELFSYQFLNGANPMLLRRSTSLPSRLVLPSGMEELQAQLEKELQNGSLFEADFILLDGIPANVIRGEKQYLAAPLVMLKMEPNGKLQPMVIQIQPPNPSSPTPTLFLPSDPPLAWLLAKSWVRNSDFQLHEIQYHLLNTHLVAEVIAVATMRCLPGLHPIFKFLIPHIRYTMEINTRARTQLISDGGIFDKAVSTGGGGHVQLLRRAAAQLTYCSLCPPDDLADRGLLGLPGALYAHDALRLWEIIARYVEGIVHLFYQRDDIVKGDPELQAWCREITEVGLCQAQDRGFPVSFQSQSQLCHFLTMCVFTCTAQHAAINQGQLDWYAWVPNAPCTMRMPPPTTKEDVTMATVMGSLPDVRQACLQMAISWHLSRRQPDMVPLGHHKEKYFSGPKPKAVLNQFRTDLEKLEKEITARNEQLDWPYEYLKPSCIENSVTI
# In all, about 580,000 compounds went through this assay and about 6,100 (1.1%) were called active. Inconclusive results, whose numbers are uncertain, are shown with a selection of clear calls. Calls follow the shape of the dose curve; as a rule, active = well fitted inhibition curve with a large enough effect; inconclusive = small, poorly fitted or top-dose-only effect, or another doubt; inactive = no such curve, though single readings can be large or run the other way. Potencies of inconclusive entries are doubtful fits and often do not repeat.
# Biological target: Polyunsaturated fatty acid lipoxygenase ALOX12 (Homo sapiens) (UniProt P18054)
# Experiment: Primary qHTS assay for inhibitors of human arachidonate 12S-lipoxygenase (ALOX12): Round 2
# Settings: purified 12hLO, xylenol orange hydroperoxide absorbance; series mostly up to 108 µM
# Method in brief: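 Purified human 12hLO at 150 nM in 25 mM Hepes, 0.01% Triton X-100, pH 7.0, preincubated 15 min at room temperature with compound. Reaction started with 40 uM arachidonic acid, 30 min at room temperature. Hydroperoxide measured by Fe-xylenol orange, 573/405 nm absorbance ratio.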
# Potency is read from the fitted curve at half-maximal effect.
row,Compound,Potency
1,Cc1cc(Cl)n2nc(C)c(-c3ccc(Cl)cc3)c2n1,inactive
2,COc1cc(C2c3c(-c4ccccc4)n[nH]c(=O)c3Nc3nnnn32)ccc1O (centres undefined),"inconclusive: 15.8 µM [inhibitor, single point]"
3,O=C(COc1cccnc1[N+](=O)[O-])N1CCN(C(=O)c2ccco2)CC1,"inconclusive: 44.7 µM [inhibitor, partial curve, poor fit]"
4,O=C(NC1CCCC1)c1ccc(C(F)(F)F)cn1,"inconclusive: 50.1 µM [inhibitor, partial curve, poor fit]"
5,N=C1/C(=C\c2ccc(-c3cccc(Cl)c3)o2)C(=O)N=C2SC=C(c3ccccc3)N12,active: 35.5 µM
6,CCn1c(O)c(N=NC(=O)CNC(=O)c2ccccc2F)c2ccccc21,inactive
7,COc1ccc(NCC2(c3ccnc(-c4cccc(O)c4)c3)CC2)cc1OC,"inconclusive: 89.1 µM [inhibitor, partial curve, poor fit]"
8,COc1ccc2c(c1)CCc1c-2n[nH]c1C(=O)O,"inconclusive: 2.51 µM [inhibitor, partial curve, poor fit]"
9,CCN(CC)CCn1c2ccccc2c(=O)c2c(O)ccc(O)c21,active: 25.1 µM
10,COc1cc(OC)c(OC)cc1CNCCNC(=O)c1ccco1,"inconclusive: 0.447 µM [inhibitor, full curve]"
11,Cc1c(-c2ccccc2)nc2ccccc2c1C(=O)OCC(=O)NCC(F)(F)F,inactive
12,Fc1ccc(N/N=C/c2cccc(Cl)c2Cl)c(F)c1,"inconclusive: 5.01 µM [inhibitor, full curve, poor fit]"
13,CCCC(=O)Nc1nc2ccc(OC)cc2s1,inactive
14,COc1ccc(NC(=S)NCCc2c[nH]c3ccccc23)c(OC)c1,"inconclusive: 44.7 µM [inhibitor, partial curve]"
15,Cc1c(C(=O)OCc2ccccc2)sc(=S)n1-c1ccccc1,"inconclusive: 70.8 µM [inhibitor, single point]"
16,CCN(CC)CCCNC(=O)c1cn(CC)c2ccc(S(=O)(=O)N(C)C3CCCCC3)cc2c1=O,"inconclusive: 35.5 µM [inhibitor, partial curve, poor fit]"
17,CCOC(=O)CSC1=C(C#N)C(c2ccc(Cl)cc2)CC(=O)N1 (centres undefined),"inconclusive: 44.7 µM [inhibitor, partial curve, poor fit]"
18,O=C(NCCCN1CCCC1)c1cc2cc(F)ccc2[nH]1,inactive
19,CC(COc1ccccc1)OC(=O)Nc1ccccc1 (centres undefined),"inconclusive: 79.4 µM [inhibitor, partial curve, poor fit]"
20,COc1ccc(C(=O)/C(C#N)=C\c2ccccc2OC(F)F)cc1,inactive
21,Cc1cccc(N2CCN(S(=O)(=O)c3c(C)noc3/C=C/N(C)C)CC2)c1C,"inconclusive: 15.8 µM [inhibitor, full curve, poor fit]"
22,O=C(c1nc2nc(-c3ccco3)cc(C(F)(F)F)n2n1)N1CCC2(CC1)OCCO2,"inconclusive: 39.8 µM [inhibitor, partial curve, poor fit]"

# An excerpt from above in order of count of non-hydrogen atoms, high to low.
row,Compound,Potency
2,COc1cc(C2c3c(-c4ccccc4)n[nH]c(=O)c3Nc3nnnn32)ccc1O (centres undefined),"inconclusive: 15.8 µM [inhibitor, single point]"
7,COc1ccc(NCC2(c3ccnc(-c4cccc(O)c4)c3)CC2)cc1OC,"inconclusive: 89.1 µM [inhibitor, partial curve, poor fit]"
20,COc1ccc(C(=O)/C(C#N)=C\c2ccccc2OC(F)F)cc1,inactive

# The list goes on.

row,Compound,Potency
1,O=C(Nc1cc(Cl)ccc1Cl)C1=C(c2ccccc2)S(=O)(=O)CCO1,"inconclusive: 31.6 µM [inhibitor, single point]"
2,CN1CCc2c(n(Cc3ccc(C(=O)NO)cc3)c3ccccc23)C1,"inconclusive: 10.9 µM [inhibitor, partial curve, poor fit]"
3,Cc1ccc(Nc2nnc(SCC(=O)c3ccc(Br)s3)s2)c(C)c1,"inconclusive: 6.31 µM [inhibitor, full curve, poor fit]"
4,COc1ccc(CNC2CCCC2)c2ccccc12,"inconclusive: 1 µM [inhibitor, full curve]"
5,Fc1ccc(C2=Nc3ccc(Br)cc3NC(c3cccs3)=N2)cc1,inactive
6,CC(Oc1ccccc1)C(=O)Nc1ccc(C(N)=O)cc1 (centres undefined),inactive
7,CCC[C@@H](CN1CCC[C@H]1CN1C(N)=NC[C@@H]1Cc1ccccc1)N1C[C@@H](Cc2ccccc2)N(CCc2ccc(Cl)c(Cl)c2)C1=N,"inconclusive: 50.1 µM [inhibitor, partial curve, poor fit]"
8,Cc1cccc(OC(=O)n2c(=S)oc3cc(Cl)ccc32)c1,"inconclusive: 89.1 µM [inhibitor, partial curve, poor fit]"
9,COCC(=O)NCCc1noc(-c2ccccc2)n1,inactive
10,COc1cccc(/C=C/C(=O)c2cc(C)ccc2C)c1OC,inactive
11,COc1ccccc1C(=O)NCC(=O)NC1CCCc2ccccc21 (centres undefined),inactive
12,Oc1cccc2oc(=S)[nH]c12,"inconclusive: 50.1 µM [inhibitor, partial curve, poor fit]"
13,CCC(CO)Nc1nc2ccc(Cl)cc2c2ccccc12 (centres undefined),"inconclusive: 79.4 µM [inhibitor, single point]"
14,CN(c1ccc(C(=O)N2CCN(Cc3ccc4c(c3)OCO4)CC2)cc1)S(=O)(=O)c1ccccc1,inactive
15,COc1ccc(-c2cc(C(=O)NC(C)(C)C)c3ccccc3n2)c(OC)c1,"inconclusive: 44.7 µM [inhibitor, partial curve, poor fit]"
16,C=CCn1c(SCC(=O)Nc2ccc(NC(=O)c3ccco3)c(OC)c2)nnc1-c1ccncc1,inactive
17,CC1(C(=O)NC2CCCC2)CCC(=O)N1CCCn1ccnc1 (centres undefined),"inconclusive: 2.82 µM [inhibitor, full curve, poor fit]"
18,CCn1c(=NC(=O)c2ccc3c(c2)OCCO3)sc2c(C)ccc(OC)c21,"inconclusive: 141 µM [inhibitor, partial curve, poor fit]"
19,C=CCN(CC=C)Cc1cc(=O)oc2cc(OC)ccc12,"inconclusive: 39.8 µM [inhibitor, partial curve, poor fit]"
20,Cc1ccc(Cl)cc1N(CC(=O)Nc1cccc(N(C)S(C)(=O)=O)c1)S(C)(=O)=O,inactive
21,CCOC(=O)C1(Cc2ccc(Cl)cc2)CCN(C(=O)c2cc(C)oc2C)CC1,"inconclusive: 22.4 µM [inhibitor, full curve]"
22,Cc1ccc(C(=O)OCC(=O)N2CCC(C)CC2)cc1S(=O)(=O)N1CCOCC1,"inconclusive: 50.1 µM [inhibitor, partial curve, poor fit]"
